Measured values: patent US20080187528A1 (FUNCTIONAL GENETICS, published 2008)
No constants are given. Whether binding was seen depends on the method and setting. For part of these data: Binding seen in cells or lysates may run through a third protein. Some binding calls cover weakened binding; strength is not graded here.

Sequences of proteins named here, by UniProt entry; tags and fusion partners are left off. A change or cut given only in a name is not applied to a line headed by its entry.
UniProt Q99816: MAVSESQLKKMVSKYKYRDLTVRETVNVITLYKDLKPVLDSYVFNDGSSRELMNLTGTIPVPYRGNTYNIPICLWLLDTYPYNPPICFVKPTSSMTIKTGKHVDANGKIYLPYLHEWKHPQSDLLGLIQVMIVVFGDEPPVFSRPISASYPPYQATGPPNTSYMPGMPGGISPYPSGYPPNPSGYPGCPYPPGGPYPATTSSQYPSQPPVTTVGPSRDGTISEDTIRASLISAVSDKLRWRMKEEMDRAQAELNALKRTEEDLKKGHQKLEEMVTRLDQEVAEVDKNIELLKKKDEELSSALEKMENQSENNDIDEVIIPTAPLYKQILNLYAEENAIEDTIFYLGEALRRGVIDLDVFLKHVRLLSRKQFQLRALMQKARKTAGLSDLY
UniProt Q05128: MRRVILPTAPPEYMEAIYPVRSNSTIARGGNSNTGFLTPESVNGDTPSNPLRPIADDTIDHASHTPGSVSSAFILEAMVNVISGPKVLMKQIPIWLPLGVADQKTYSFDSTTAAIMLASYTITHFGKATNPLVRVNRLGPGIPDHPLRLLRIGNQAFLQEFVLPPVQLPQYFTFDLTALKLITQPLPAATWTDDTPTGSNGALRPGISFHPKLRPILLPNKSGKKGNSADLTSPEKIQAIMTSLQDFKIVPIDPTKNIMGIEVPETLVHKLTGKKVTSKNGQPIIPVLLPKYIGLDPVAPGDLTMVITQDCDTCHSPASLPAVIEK

Columns and labels:
[1] = biological target: full length TSG101 C-terminally tagged with a Myc epitope (human) (UniProt Q99816); assay: co-immunoprecipitation with anti Myc (figure legend)
[2] = biological target: full length TSG101 C-terminally tagged with a Myc epitope (human) (UniProt Q99816); assay: co-immunoprecipitation with anti-Myc antibody from 293T lysates
[3] = biological target: Ebola VP40 (1-326) (Ebola virus (EBOV)) (UniProt Q05128); assay: Far Western (figure legend)

Row | Substance | binding [1] | binding [2] | binding [3]
1 | Ebola VP40 (1-326) (from UniProt Q05128 1-326) | binds | binds | 
2 | purified TSG101 protein that contains only the UEV domain (from UniProt Q99816 2-145) |  |  | binds
